# According to the supplement of paper PMC12578635:
# This is one part of the list. No stated cut-off is given here; in the data, active = 150% or more and inactive = the rest. Single values are uncertain, as repeats are few or missing.
# Test system: Staphylococcus aureus JE2-lux inside RAW 264.7 macrophages
# Assay: intracellular bacterial bioluminescence relative to DMSO vehicle; higher = higher intracellular bacterial metabolic activity
# Conditions: 10 µM; treatment time 4 h; gentamicin 50 µg/ml
row,Compound,intracellular bacterial bioluminescence
1,O=c1[nH]cc(S(=O)(=O)N2CCc3ccccc3C2)c(=O)[nH]1,inactive: 115%
2,Nc1c(C(=O)Nc2ccc(Br)cc2)sc2[nH]c(=O)c(C(=O)O)cc12,inactive: 77.5%
3,Cc1ccc2c(c1)cc(C)c1nnc(SCC(=O)Nc3cc(C)on3)n12,inactive: 107%
4,Cc1noc(C)c1C(=O)Nc1ccccc1NC(=O)c1ccccn1,inactive: 117%
5,Cc1c(CCC(C)C)c(NCCN(C)C)n2c(nc3ccccc32)c1C#N,inactive: 116%
6,CSc1nc2ccc3nc(NC(=O)CN4C(=O)c5ccccc5C4=O)sc3c2s1,inactive: 69.9%
7,Cn1c(=O)c(O)c2c3c(cccc31)C(=O)c1ccccc1-2,inactive: 98%
8,O=C(Nc1ccc(F)cc1F)c1nnc(C2CCN(C(=O)C3CCCCC3)CC2)s1,inactive: 78%
9,O=C(Nc1cc(C(F)(F)F)cc(C(F)(F)F)c1)c1cnc2sccn2c1=O,inactive: 103%
10,CCOC(=O)c1cccc(NC(=O)CSc2nnc3ccc(C(=O)NCc4ccccc4)cn23)c1,inactive: 71.7%
11,Cc1cc(=O)[nH]c2c(C)cc(S(=O)(=O)Nc3ccc(O)cc3)cc12,inactive: 118%
12,COc1cc(/C=C(\C#N)c2nc(-c3ccc(F)cc3)cs2)cc([N+](=O)[O-])c1O,inactive: 69.5%
13,O=C(CN1CCC(n2cnc3cccnc32)CC1)Nc1nccs1,inactive: 60%
14,CCn1cc(C(=O)Nc2ccc(F)c(F)c2)c2nn(-c3ccccc3)c(=O)c-2c1,inactive: 79.4%
15,COc1ccc(Cl)cc1S(=O)(=O)Nc1ccc(-c2nnc(-c3ccccc3)o2)cc1,inactive: 111%
16,COC(=O)c1ccccc1-c1ccc(/C=C/c2cc(C(=O)O)c3ccccc3n2)o1,inactive: 111%
17,C=CCn1ccn(-c2cccc(Cl)c2)c(=O)c1=O,inactive: 112%
18,Cc1ccccc1-c1nc2n(CC(=O)Nc3nccs3)c(C)cc(=O)n2n1,inactive: 111%
19,Cc1ccc2nc(NNC(=O)c3ccc(S(=O)(=O)N4CCC(C)CC4)cc3)sc2c1,inactive: 79%
20,Clc1ccc(-c2nnn3c2nc(NCc2cccs2)c2ccccc23)cc1,inactive: 115%
21,Cc1nnc(NC(=O)CSc2nc(-c3ccccc3C)nc3cc(=O)[nH]n23)s1,inactive: 79.5%
22,CCOC(=O)c1sc2nc(NC(=O)c3ccc(N(C)C)cc3)sc2c1C,inactive: 98.6%
23,COc1ccc(OC)c(NS(=O)(=O)c2cc(-c3ccn[nH]3)cs2)c1,inactive: 101%

row,Compound,intracellular bacterial bioluminescence
1,O=C(CN1C(=O)S/C(=C\c2ccccc2)C1=O)NCCN1C(=O)CSC1=O,inactive: 77.4%
2,Cc1cc(C)c2sc(NNC(=O)C3COc4ccccc4O3)nc2c1 (stereo unspecified),inactive: 35.5%
3,Cc1nn(-c2ccccc2)c2[nH]c(=O)c(CNC(c3ccccc3)c3ccco3)cc12 (stereo unspecified),inactive: 134%
4,O=C(Nc1ccc(Cl)cn1)c1ccc(SCCN2CCOCC2)nc1,inactive: 77.9%
5,O=C(Cn1c2ccccc2c(=O)c2ccccc21)Nc1ccccc1F,inactive: 95%
6,COc1ccc2c(C)cc(SCC(=O)Nc3c(C)cccc3C)nc2c1,inactive: 107%
7,N#Cc1c(NC(=O)CSc2nnc3sc4ccccc4n23)sc2c1CCC2,inactive: 62.3%
8,CCc1ccc(-n2nc(-c3nc(-c4ccncc4)no3)c3ccccc3c2=O)cc1,inactive: 71.1%
9,COC(=O)COc1cc2c(-c3cc4cccc(OC)c4o3)cc(=O)oc2cc1C,active: 188%
10,Cc1onc(-c2ccccc2)c1C(=O)N1CCc2ccccc2C1,inactive: 81%
11,O=c1c2ccccc2nc2c3ccccc3c(Cl)nn12,inactive: 94.4%
12,CC(=O)c1cccc(NC(=O)NC2CC3CCC(C2)N3Cc2ccc(F)cc2)c1 (stereo unspecified),inactive: 63.7%
13,COc1ccc(Nc2nc(-c3ccccc3)c(C(=O)Nc3cccnc3)s2)cc1,inactive: 82.5%
14,O=C(Cn1c2c(c(=O)n3ncnc13)CCC2)Nc1ccccc1,inactive: 110%
15,CCn1nc(C)c2[nH]c(=S)n(CC3CCCO3)c(=O)c21 (stereo unspecified),inactive: 104%
16,O=C(CSc1ncnc2sc3c(c12)CCCC3)Nc1ccc(Br)cc1,inactive: 88%
17,CCOC(=O)C1=C(C)N=c2s/c(=C/c3cc([N+](=O)[O-])ccc3O)c(=O)n2C1c1cccs1 (stereo unspecified),inactive: 84.1%
18,Cc1ccc(C)c(NC(=O)Cn2ncn3nc4c(c3c2=O)CCCC4)c1,inactive: 21.6%
19,CC(C)c1ccc2nc(SCC(=O)Nc3c[nH]c(=O)[nH]c3=O)c(C#N)cc2c1,inactive: 96.6%
20,COc1ccc(S(=O)(=O)NCc2ccco2)cc1C(=O)O,inactive: 101%
21,CCCc1cc(CNC(=O)C2CC(c3cnn(C)c3)=NO2)on1 (stereo unspecified),inactive: 116%
22,Cc1nnc(SCC(=O)N2CCCCC2)n(N)c1=O,inactive: 113%
23,O=C(COc1ccc(Cl)cc1)Nc1nc2ccc3ccccc3c2s1,inactive: 99.8%

row,Compound,intracellular bacterial bioluminescence
1,COc1ccc2[nH]c3c(=O)n(CCCCC(=O)NCc4cccnc4)c(=S)[nH]c3c2c1,inactive: 111%
2,O=C(/C=C/c1ccccc1)Nc1nc2ccc(S(=O)(=O)N3CCCCC3)cc2s1,inactive: 88.3%
3,COc1cccc(NC(=O)c2oc3ccccc3c2NC(=O)c2cccc([N+](=O)[O-])c2)c1,inactive: 103%
4,O=C(CSc1nccc(O)n1)Nc1ccc(C(=O)NC2CC2)cc1,inactive: 103%
5,COC(=O)c1c(NC(=O)/C(C#N)=C/c2cccs2)sc(C)c1C,inactive: 97.9%
6,C=CCn1c(SCCC(=O)Nc2ccc3c(c2)OCO3)nc2sc3c(c2c1=O)CCCC3,inactive: 33.8%
7,COc1ccc2nc(N/N=C3/C(=O)N(c4ccccc4)N=C3C)sc2c1,inactive: 79.8%
8,Cc1sc2ncnc(Sc3nnnn3-c3ccccc3)c2c1C,inactive: 103%
9,NC(=O)c1ccc(NC(=O)C(=O)N2CCC3(CC2)OCCN3S(=O)(=O)c2cccs2)cc1,inactive: 101%
10,COc1ccc(/N=C/c2c(Nc3ccc(Cl)cc3)nc3c(C)cccn3c2=O)cc1,inactive: 89.1%
11,O=C(Nc1ccccc1Cl)c1cccn2c(-c3ccc(F)cc3)nnc12,inactive: 83.9%
12,Cc1nc2ccc(S(=O)(=O)Nc3cccc(-c4nc5cccnc5s4)c3C)cc2s1,inactive: 91.6%
13,Cc1cccc(CSc2ncnc3[nH]cnc23)c1,inactive: 76.9%
14,Cn1c2ccc(F)cc2c2nnc(SCC(=O)Nc3cccc(O)c3)nc21,inactive: 60%
15,CS(=O)(=O)c1ccc2nc(Nc3nc4cc5c(cc4s3)OCCO5)sc2c1,inactive: 91.1%
16,CN1CCN(c2nc(Nc3cccc(F)c3)c3cnn(-c4ccccc4)c3n2)CC1,inactive: 134%
17,COc1ccc(-c2n[nH]c(SC(CC(=O)NCc3cccnc3)c3ccc(OC)cc3)n2)cc1 (stereo unspecified),inactive: 111%
18,O=C(NCCc1c[nH]c2ccccc12)C(=O)NCC1OCCN1C(=O)c1ccc2c(c1)OCO2 (stereo unspecified),inactive: 112%
19,COc1ccnc(Cn2nc3c4ccccc4nc(C(C)(C)C)n3c2=O)c1OC,inactive: 45.1%
20,Cc1nn(-c2nc(-c3ccc(F)cc3)cs2)c(O)c1CCC(=O)N1CCOCC1,inactive: 114%
21,CCc1nn2c(=O)cc(CSc3nnc(-c4cccc(C)c4)o3)nc2s1,inactive: 74.9%
22,O=C(NC(c1ccccc1)c1cccnc1)c1cc2c([nH]c1=O)CCCCC2 (stereo unspecified),inactive: 116%
23,CC(=O)c1cccc(N/C=C(\C#N)c2nc(-c3cccc4ccccc34)cs2)c1,inactive: 107%

# Reformatted as tab-separated lines: 5 of the compounds above
row	Compound	intracellular bacterial bioluminescence
11	O=c1c2ccccc2nc2c3ccccc3c(Cl)nn12	inactive: 94.4%
12	CC(=O)c1cccc(NC(=O)NC2CC3CCC(C2)N3Cc2ccc(F)cc2)c1 (stereo unspecified)	inactive: 63.7%
13	COc1ccc(Nc2nc(-c3ccccc3)c(C(=O)Nc3cccnc3)s2)cc1	inactive: 82.5%
14	O=C(Cn1c2c(c(=O)n3ncnc13)CCC2)Nc1ccccc1	inactive: 110%
15	CCn1nc(C)c2[nH]c(=S)n(CC3CCCO3)c(=O)c21 (stereo unspecified)	inactive: 104%

# Continuation.

row,Compound,intracellular bacterial bioluminescence
1,COC(=O)c1c(NC(=O)CC2Nc3ccccc3NC2=O)sc2c1CCC(C)C2 (stereo unspecified),inactive: 118%
2,O=C(CN1C(=O)c2ccccc2S1(=O)=O)NC1=NN(c2ccccc2)C(=O)C1,inactive: 137%
3,CCc1nn(-c2ccccc2)c2nc(-c3ccccc3)nc(SCC(=O)NC(C)(C)C)c12,inactive: 106%
4,Cc1cc(NCCN2CCCCCC2)n2c(nc3ccccc32)c1C#N,inactive: 58.7%
5,COC(=O)Cn1/c(=N/C(=O)c2ccc(C#N)cc2)sc2cc(F)ccc21,inactive: 104%
6,O=C(O)COc1ccccc1/C=C1/SC(=S)N(NC(=O)c2ccco2)C1=O,inactive: 112%
7,CCOc1cccc(-c2cc(C(=O)N/N=C3/C(=O)Nc4ccccc43)[nH]n2)c1,inactive: 124%
8,O=C(NN1C(=O)CSC1=S)c1c(F)cccc1F,inactive: 122%
9,CCCc1cc(C(=O)NC(c2ccccc2)c2ccnn2C)[nH]n1 (stereo unspecified),inactive: 118%
10,O=C(NCc1cccnc1)c1ccc(OC(F)F)cc1,inactive: 105%
11,O=C(NCc1cccnc1)C(=O)NCC1OCCCN1S(=O)(=O)c1ccc(Cl)cc1 (stereo unspecified),active: 175%
12,CCn1c(C)cc2cc(NS(=O)(=O)c3ccc4[nH]c(=O)[nH]c(=O)c4c3)ccc21,inactive: 110%
13,Cc1cccc(OCc2nc(-c3ccc4c(c3)[nH]c(=O)c(=O)n4C(C)C)no2)c1,inactive: 6.09%
14,O=C(Nc1nc2ccc(Br)cc2s1)c1ccc(N2C(=O)CCC2=O)cc1,inactive: 117%
15,Fc1cccc2sc(Nc3nc4cc5c(cc4s3)OCCO5)nc12,inactive: 103%
16,CCCN1CCN(c2ncnc3sc(C(=O)NCC4CCCO4)c(C)c23)CC1 (stereo unspecified),inactive: 102%
17,Clc1cccc(-n2ncc3c(NCc4ccco4)ncnc32)c1,inactive: 71.1%
18,Cc1cc(-n2ccnc(NCCc3ccccc3)c2=O)ccc1Br,inactive: 86.8%
19,Cc1cc2c(cc1C)NC(CC(=O)Nc1ccc(Cl)c(C(F)(F)F)c1)C(=O)N2 (stereo unspecified),inactive: 94.4%
20,COc1cc(N2CCn3c(nc4cc(Cl)ccc43)C2)ccc1NS(C)(=O)=O,inactive: 100%
21,Nc1nc(SCC(=O)NCc2ccc(F)cc2)[nH]c(=O)c1NC(=O)c1ccc(F)c(F)c1,inactive: 99.8%
22,CCOC(=O)CSC1=NS(=O)(=O)c2ccccc2N1,inactive: 71.4%
